{"source": "patent US12612627B2", "about": "“Compositions and methods for increasing sodium current in cardiac cells” (REGENTS OF THE UNIVERSITY OF MINNESOTA, priority 2020, dated 2026)", "key": {"Nav1.5": {"system": "Nav1.5", "assay": "Nav1.5 protein level by Western blotting in RL14 human cardiomyocytes", "type": "cell-based", "settings": "RL14 stimulated with deferoxamine 100 μM for 24 hours", "protocol": "(§1) Human fetal cardiomyocyte cell line RL14 (ATCC RL-14, ATCC, Manassas, VA) cells were grown in DMEM/F-12 nutrient mixture (GE Healthcare Life Sciences, Logan, UT) supplemented with 12.5% (v/v) fetal bovine serum (Gibco, Grand Island, NY) and penicillin-streptomycin (10,000 U/mL; Gibco, Grand Island, NY). HEK293T cells were maintained in DMEM high glucose supplemented with 10% fetal bovine serum and penicillin-streptomycin. hiPSC-cardiomyocytes (iCELL Cardiomyocytes) were obtained from Cellular Dynamics International (Madison, WI). iCELL cardiomyocytes were seeded and maintained using iCELL Cardiomyocyte Plating Medium and Maintenance Medium (FUJIFILM Cellular Dynamics, Inc., Madison, WI). […]\nCells were washed twice with ice-cold PBS and disrupted in Cell Lysis Buffer (Cell Signaling Technology, Danvers, MA) with Protease and Phosphatase Inhibitor Cocktail (Thermo Fisher Scientific, Waltham, MA) on ice for 30 minutes. […] The total protein concentration was quantified using the BCA Protein Assay Kit (Pierce, Thermo Fisher Scientific, Waltham, MA). […]\nAfter TBST washing, the membrane was incubated with horseradish peroxidase (HRP)-conjugated secondary antibody (1:5000) for 90 min at room temperature. […] The images were analyzed using ImageJ software to measure band density. […]"}, "SCN5A mRNA": {"system": "SCN5A mRNA", "assay": "SCN5A mRNA level by qPCR in RL14 human cardiomyocytes", "type": "cell-based", "settings": "RL14 stimulated with deferoxamine, dose-dependent and time-dependent"}, "miR-448": {"system": "miR-448", "assay": "miR-448 level by qPCR in RL14 human cardiomyocytes", "type": "cell-based", "settings": "RL14 cells stimulated with hypoxia-mimetic chemical for 24 hours; normalized with RNU6", "protocol": "as §1\nTotal RNA was prepared using RNeasy Plus Mini Kit or miRNeasy Mini Kit (Qiagen, Valencia, CA) according to the manufacturer's instructions. […] A reverse transcription quantitative real-time PCR was performed with SYBR Green PCR Master Mix (Thermo Fisher Scientific, Waltham, MA) using the 7500Fast Real-Time PCR system (Thermo Fisher Scientific, Waltham, MA) and miScript SYBR Green PCR Kit with miScript primer assays to detect the expression of miRNA. […]"}, "HIF1α": {"system": "HIF1α", "assay": "HIF1α expression and nuclear translocation in RL14 cells (Western blotting, confocal microscopy)", "type": "cell-based, human", "settings": "RL14, deferoxamine six hours"}}, "note": "For at least one compound, name, drawing or mass did not settle the structure.", "data": [{"smiles": "CC(=O)N(O)CCCCCNC(=O)CCC(=O)N(O)CCCCCNC(=O)CCC(=O)N(O)CCCCCN", "note": "[deferoxamine]", "values": [{"measurement": "Nav1.5 protein level", "setting": "Nav1.5", "value": "decreased"}, {"measurement": "SCN5A mRNA expression", "setting": "SCN5A mRNA", "value": "decreased"}, {"measurement": "miR-448 expression", "setting": "miR-448", "value": "increased"}, {"measurement": "HIF1α protein level and translocation into the nucleus", "setting": "HIF1α", "value": "increased"}]}]}
